{
  "source": "patent US9249115B2",
  "about": "“N,N1 substituted piperazines having combined antiaggregant, anticoagulant and vasodilatory activity, and method for producing same” (Vertex Closed Joint Stock Company, priority 2011, dated 2016)",
  "key": {"mesentery venules": {"tested_on": "mesentery venules", "assay": "Vasodilator properties, microcirculatory vessel responsiveness to noradrenalin, venules", "format": "in vivo, Wistar male rats", "details": "0.025 mmol/kg, noradrenalin 10^−7 g/ml", "procedure": "(§1) Vasodilator properties of N,N′-substituted piperazines were evaluated according to their influence on microcirculatory vessel responsiveness.\n(§2) The studies were done on Wistar male rats with mass of 300±30 g (laboratory animals nursery “Rappolovo”, RAMS). The animals were kept with unlimited food (standard ration for laboratory rats K-120 by <<Inform-korm>>, Russia) and water allowance.\n(§3) The solutions of N,N′-substituted piperazines and physiological (control) solution were introduced via bolus injection within 1 min into caudal vein of non-anaesthetized animals according to the dosage of 5.0 ml per 1 kg. Immediately after the introduction the animals were put in separate standard cages for observation.\n(§4) In 30 min after the injection the animals were anaesthetized (thiopental sodium, 60 mg/kg intraperitoneally). The loop of small intestine adjoined to mesoappendix was retrieved through inferomedian incision. To study microcirculation in mesentery venules and arterioles in transmitted light the rat was placed on thermostated microscope objective table. […]\n(§5) The study of microcirculatory vessels was done with LUMAM I1 microscope (LOMO, Russia). […] The diameter of the vessel wall (D, m) before and after the application of noradrenalin and the starting time of blood flow slowdown induced by noradrenalin were measured (the measurements were done for 1 min after the application)."}, "mesentery arterioles": {"tested_on": "mesentery arterioles", "assay": "Vasodilator properties, microcirculatory vessel responsiveness to noradrenalin, arterioles", "format": "in vivo, Wistar male rats", "details": "0.025 mmol/kg, noradrenalin 10^−7 g/ml", "procedure": "as §1, §2, §3, §4, §5"}},
  "note": "At least one structure is not confirmed: it was looked up by name or label, or the drawing left a doubt.",
  "data": [
    {"smiles": "COc1ccc(CN2CCN(CC(CS(=O)(=O)[O-])OS(=O)(=O)[O-])CC2)c(OC)c1OC.[Na+].[Na+]", "note": "(centres unmarked) [Example 14, 2-sulfooxy-3-(4-((2,3,4-trimethoxyphenyl)-methyl)piperazine-1-yl)propane-1-sulfonic acid disodium salt monohydrate]", "values": [
      {"measurement": "Blood flow slowdown, Latent period of slowdown, s", "setting": "mesentery venules", "value": "No slowdown"},
      {"measurement": "Blood flow slowdown, Latent period of slowdown, s", "setting": "mesentery arterioles", "value": "No slowdown"}
    ]}
  ]
}
